Laboratory results from patent US20260266848A1, “COMPOSITIONS AND METHODS FOR DIAGNOSING AND TREATING DYSTONIA” (Duke University, priority 2023, published 2026).
A unit is not stated for every read-out.

Test system: DYT1 patient plasma
Assay: Whole plasma metabolomics (Biocrates MxP Quant 500 Kit), DYT1 vs Healthy Controls
Settings: for Mean of DYT1-Dystonia: DYT1-Dystonia group; for Mean of Healthy Control: Healthy Control group; for LogFC / Ratio: DYT1-Dystonia vs Healthy Control
[1] = Mean of Healthy Control minus Mean of DYT1-Dystonia
[2] = human whole plasma metabolite level
[3] = Healthy Control mean minus DYT1-Dystonia mean

SMILES | Difference [1] | Mean of DYT1-Dystonia [2] | Mean of Healthy Control [2] | Difference [3] | Mean of DYT1-Dystonia (human plasma metabolite level) | Mean of Healthy Control (human plasma metabolite level) | LogFC | Ratio
O=c1[nH]c(=O)c2nc[nH]c2[nH]1 [Xanthine_Nucleobases Related] | −0.2421 | 1.745 | 1.503 | – | – | – | – | –
CCCCC/C=C\C/C=C\C/C=C\C/C=C\CCCC(=O)O [AA_Fatty Acids] | 0.0607 | 0.4471 | 0.5078 | – | – | – | – | –
O=S(=O)(O)Oc1c[nH]c2ccccc12 [Ind-SO4_Indoles Derivatives] | – | – | – | 0.0819 | 1.788 | 1.87 | – | –
CC[C@H](C)[C@H](N)C(=O)O [Ile_Aminoacids] | 16.33 | 103.1 | 119.4 | – | – | – | – | –
CCCCCCCCCCCCC/C=C/[C@@H](O)[C@H](CO)NC(=O)CCCCCCCCCCCCCCCCCCCCCCCCC [Cer(d18:1/26:0)_Ceramides] | 0.02156 | 0.08885 | 0.1104 | – | – | – | – | –
C[C@H](CCC(=O)O)[C@H]1CC[C@H]2[C@@H]3[C@H](O)C[C@@H]4C[C@H](O)CC[C@]4(C)[C@H]3C[C@H](O)[C@]12C [CA_Bile Acids] | 0.1363 | 0.1642 | 0.3005 | – | – | – | – | –
CCCCCCCCCCCCCC(=O)OC[C@@H](O)COP(=O)([O-])OCC[N+](C)(C)C [lysoPC a C14:0_Glycerophospholipids] | −0.18 | 2.571 | 2.391 | – | – | – | – | –
N[C@@H](CC(=O)O)C(=O)O [Asp_Aminoacids] | 2.169 | 6.715 | 8.883 | – | – | – | −0.4037 | 0.7559
CC/C=C\C/C=C\C/C=C\C/C=C\C/C=C\CCCC(=O)O [EPA_Fatty Acids] | 0.06759 | 0.161 | 0.2286 | – | – | – | – | –
N[C@@H](Cc1c[nH]c2ccccc12)C(=O)O [Trp_Aminoacids] | −4.164 | 78.72 | 74.56 | – | – | – | – | –
CC(C)[C@H](N)C(=O)O [Val_Aminoacids] | 17.51 | 306.3 | 323.8 | – | – | – | – | –
Cn1cnc(C[C@H](N)C(=O)O)c1 [1-Met-His_Aminoacids Related] | 0.6347 | 6.473 | 7.108 | – | – | – | – | –
NCCCC(=O)O [GABA_Biogenic Amines] | 0.02811 | 0.2481 | 0.2762 | – | – | – | – | –
CC/C=C\C/C=C\C/C=C\C/C=C\C/C=C\C/C=C\CCC(=O)O [DHA_Fatty Acids] | 0.3141 | 1.024 | 1.338 | – | – | – | – | –
C[C@H](CCC(=O)NCCS(=O)(=O)O)[C@H]1CC[C@H]2[C@@H]3[C@H](O)C[C@@H]4C[C@H](O)CC[C@]4(C)[C@H]3C[C@H](O)[C@]12C [TCA_Bile Acids] | – | – | – | −0.00006463 | 0.1122 | 0.1121 | – | –
C[C@H](CCC(=O)NCC(=O)O)[C@H]1CC[C@H]2[C@@H]3CC[C@@H]4C[C@H](O)CC[C@]4(C)[C@H]3C[C@H](O)[C@]12C [GDCA_Bile Acids] | – | – | – | −0.05284 | 0.336 | 0.2832 | – | –
C[n+]1cccc(C(=O)[O-])c1 [Trigonelline_Alkaloids] | – | – | – | −0.08345 | 5.24 | 5.157 | – | –
CCCCCCCCCCCCC/C=C/[C@@H](O)[C@H](CO)NC(=O)CCCCCCCCCCCCCCCCCCCCCCC [Cer(d18:1/24:0)_Ceramides] | – | – | – | −0.134 | 3.389 | 3.255 | – | –
Cc1ccc(OS(=O)(=O)O)cc1 [p-Cresol-SO4_Cresols] | 5.042 | 7.167 | 12.21 | – | – | – | −0.7686 | 0.587
CCC(N)C(=O)O (stereo not shown) [AABA_Aminoacids Related] | 6.05 | 34.66 | 40.71 | – | – | – | – | –
NCCS(=O)(=O)O [Taurine_Aminoacids Related] | −4.476 | 67.96 | 63.49 | – | – | – | – | –
CCCCCCCCCCCCCCCCCCCCCCCCCCCC(=O)OC[C@@H](O)COP(=O)([O-])OCC[N+](C)(C)C [lysoPC a C28:0_Glycerophospholipids] | 0.1196 | 1.004 | 1.123 | – | – | – | 0.1616 | 0.894
C[C@]12CC[C@H](OS(=O)(=O)O)CC1=CC[C@@H]1[C@@H]2CC[C@]2(C)C(=O)CC[C@@H]12 [DHEAS_Hormones] | −2.622 | 7.027 | 4.405 | – | – | – | – | –
CCCCCCCCCCCCC/C=C/[C@@H](O)[C@H](CO)NC(=O)CCCCCCCCCCCCCCCCCCC [Cer(d18:1/20:0)_Ceramides] | – | – | – | 0.004778 | 0.206 | 0.2108 | – | –

SMILES | Difference [1] | Mean of DYT1-Dystonia [2] | Mean of Healthy Control [2] | Difference [3] | Mean of DYT1-Dystonia (human plasma metabolite level) | Mean of Healthy Control (human plasma metabolite level) | LogFC | Ratio
C=CC(=O)OC(CC(=O)[O-])C[N+](C)(C)C (stereo not shown) [C3:1_Acylcarnitines] | 0.02054 | 0.2605 | 0.281 | – | – | – | – | –
N[C@@H](Cc1ccc(O)cc1)C(=O)O [Tyr_Aminoacids] | 17.03 | 83.3 | 100.3 | – | – | – | −0.2679 | –
O=C(O)Cc1c[nH]c2ccccc12 [3-IAA_Indoles Derivatives] | −2.939 | 9.304 | 6.364 | – | – | – | – | –
C[N+](C)(C)CCO [Choline_Vitamins & Cofactors] | 1.178 | 7.47 | 8.648 | – | – | – | – | –
CCCCCCCCCCCCC/C=C/[C@@H](O)[C@H](CO)NC(=O)CCCCCCCCCCCCC [Cer(d18:1/14:0)_Ceramides] | 0.02054 | 0.1654 | 0.186 | – | – | – | – | –
CCCCCCCCCCCCCCCCC(=O)OC[C@@H](O)COP(=O)([O-])OCC[N+](C)(C)C [lysoPC a C17:0_Glycerophospholipids] | – | – | – | 0.08 | 2.98 | 2.9 | – | –
NC(=O)NCCC[C@H](N)C(=O)O [Cit_Aminoacids Related] | – | – | – | 2.03 | 44.18 | 46.21 | – | –
O=C(O)CNC(=O)c1ccccc1 [HipAcid_Carboxylic Acids] | 1.214 | 3.592 | 4.806 | – | – | – | – | –
CCCCCCCCCCCCCCC(=O)O[C@H]1CC[C@@]2(C)C(=CC[C@H]3[C@@H]4CC[C@H]([C@H](C)CCCC(C)C)[C@@]4(C)CC[C@@H]32)C1 [CE(15:0)_Cholesterol Esters] | – | – | – | −0.02641 | 3.043 | 3.017 | – | –
O=C(O)[C@@H]1CCCN1 [Pro_Aminoacids] | 64.55 | 289.2 | 353.8 | – | – | – | – | –
CNCC(=O)O [Sarcosine_Aminoacids Related] | −8.353 | 15.48 | 7.123 | – | – | – | – | –
NC(N)=NCCCC[C@H](N)C(=O)O [HArg_Aminoacids Related] | −0.2218 | 2.502 | 2.28 | – | – | – | – | –
CCCCCCCCCCC/C=C/[C@@H](O)[C@H](CO)NC(=O)CCCCCCCCCCCCCCCCCCCCCCC [Cer(d16:1/24:0)_Ceramides] | 0.03534 | 0.3528 | 0.3881 | – | – | – | – | –
CC(N)CC(=O)O (stereo not shown) [BABA_Aminoacids Related] | 0.01955 | 0.08245 | 0.102 | – | – | – | – | –
C[C@H](CCC(=O)NCCS(=O)(=O)O)[C@H]1CC[C@H]2[C@@H]3CC[C@@H]4C[C@H](O)CC[C@]4(C)[C@H]3C[C@H](O)[C@]12C [TDCA_Bile Acids] | −0.04063 | 0.2044 | 0.1637 | – | – | – | – | –
CCCCCCCCCCCCCCCCCCCCCCCC(=O)OC[C@@H](O)COP(=O)([O-])OCC[N+](C)(C)C [lysoPC a C24:0_Glycerophospholipids] | 0.04883 | 0.5465 | 0.5954 | – | – | – | – | –
CSCC[C@H](N)C(=O)O [Met_Aminoacids] | 6.934 | 34.78 | 41.71 | – | – | – | – | –
CCCCCCCCCCCCC/C=C/[C@@H](O)[C@H](CO)NC(=O)CCCCCCCCCCCCCCC [Cer(d18:1/16:0)_Ceramides] | −0.04891 | 0.9077 | 0.8588 | – | – | – | – | –
N=C(N)NCCC[C@H](N)C(=O)O [Arg_Aminoacids] | 17.97 | 114.7 | 132.7 | – | – | – | – | –
C[C@H](CCC(=O)NCC(=O)O)[C@H]1CC[C@H]2[C@@H]3CC[C@@H]4C[C@H](OS(=O)(=O)O)CC[C@]4(C)[C@H]3CC[C@]12C [GLCAS_Bile Acids] | – | – | – | 0.08451 | 1.067 | 1.151 | – | –
N[C@@H](CCC(=O)O)C(=O)O [Glu_Aminoacids] | 11.52 | 53.47 | 64.99 | – | – | – | – | –
C[C@]12CCC(=O)C=C1CC[C@@H]1[C@@H]2[C@@H](O)C[C@@]2(C)[C@H]1CC[C@]2(O)C(=O)CO [Cortisol_Hormones] | −0.09268 | 0.3855 | 0.2928 | – | – | – | – | –
C[C@H](CCC(=O)NCCS(=O)(=O)O)[C@H]1CC[C@H]2[C@@H]3CC[C@@H]4C[C@H](O)CC[C@]4(C)[C@H]3CC[C@]12C [TLCA_Bile Acids] | 0.0006803 | 0.003238 | 0.003919 | – | – | – | – | –
